No constants are given. Whether binding was seen depends on the method and setting. Binding seen in cells or lysates may run through a third protein. Some binding calls cover weakened binding; strength is not graded here.

This experiment addresses T1, sirtuin 1 (SIRT1) (mouse (endogenous in hippocampal tissue)) (UniProt Q923E4).
T1 sequence: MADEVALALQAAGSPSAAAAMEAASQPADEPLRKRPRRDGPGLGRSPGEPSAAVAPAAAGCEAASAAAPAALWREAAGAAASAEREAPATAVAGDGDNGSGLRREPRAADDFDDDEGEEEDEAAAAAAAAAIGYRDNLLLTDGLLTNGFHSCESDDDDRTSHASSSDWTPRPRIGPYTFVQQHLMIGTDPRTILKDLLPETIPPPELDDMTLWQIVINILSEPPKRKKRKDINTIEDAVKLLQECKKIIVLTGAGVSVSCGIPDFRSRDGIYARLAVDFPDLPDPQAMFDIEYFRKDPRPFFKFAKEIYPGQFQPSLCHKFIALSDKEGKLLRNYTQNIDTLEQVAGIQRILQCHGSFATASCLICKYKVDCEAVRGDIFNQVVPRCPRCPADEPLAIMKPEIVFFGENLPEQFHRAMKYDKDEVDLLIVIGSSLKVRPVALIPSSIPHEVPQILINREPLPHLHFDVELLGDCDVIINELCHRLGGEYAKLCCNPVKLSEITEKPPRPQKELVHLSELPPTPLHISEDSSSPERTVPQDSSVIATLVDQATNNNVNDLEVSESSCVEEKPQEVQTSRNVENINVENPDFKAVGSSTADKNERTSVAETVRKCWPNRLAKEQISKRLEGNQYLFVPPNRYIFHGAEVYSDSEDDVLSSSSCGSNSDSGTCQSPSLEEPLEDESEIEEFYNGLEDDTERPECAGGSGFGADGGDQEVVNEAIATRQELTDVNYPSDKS
Nature of the experiment: co-IP; lysate of hippocampal tissue of WT mice; Dynabeads Protein G IP kit; 3 ug of anti-Fgr (Santa Cruz) and anti-SIRT1 (Abcam); detection by Western blotting.

On to “Fgr kinase (from UniProt P14234 1-517) (enzyme)”, for which the binding result is “binds”.

Values taken from publication PMC10360347.
